US20230151091A1 (NEW YORK UNIVERSITY, published 2023)
Results are given in words; binding and its absence hold for the method and conditions named. Some results given as binding are weak or reduced against the parent protein; the word gives no strength.

T1: human MuSK (human, UniProt O15146 24-495)
T1 construct: Recombinant protein coated on ELISA plates (R&D Systems cat. 10189-MK) or on the Biacore chip; also called human muscle-specific tyrosine protein kinase; full length human MuSK
T1 sequence: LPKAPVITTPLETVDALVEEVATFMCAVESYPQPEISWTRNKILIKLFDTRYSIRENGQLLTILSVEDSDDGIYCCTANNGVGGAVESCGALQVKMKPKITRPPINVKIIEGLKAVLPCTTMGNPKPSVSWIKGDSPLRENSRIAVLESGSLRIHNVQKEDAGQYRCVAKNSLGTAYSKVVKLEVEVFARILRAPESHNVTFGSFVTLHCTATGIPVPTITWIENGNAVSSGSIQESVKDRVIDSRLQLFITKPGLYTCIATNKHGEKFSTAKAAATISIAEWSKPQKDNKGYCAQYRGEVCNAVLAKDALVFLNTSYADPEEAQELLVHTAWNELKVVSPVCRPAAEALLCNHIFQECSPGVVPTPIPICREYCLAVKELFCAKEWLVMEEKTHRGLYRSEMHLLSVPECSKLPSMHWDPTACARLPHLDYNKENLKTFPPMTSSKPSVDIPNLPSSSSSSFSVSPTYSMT

T2: mouse MuSK (mouse, UniProt Q61006 22-494, limits assumed)
T2 construct: Coated on ELISA plates or on the Biacore chip; also called full length mouse MuSK; mouse MuSK (in house produced in HEK293 cells)
T2 sequence (looked up): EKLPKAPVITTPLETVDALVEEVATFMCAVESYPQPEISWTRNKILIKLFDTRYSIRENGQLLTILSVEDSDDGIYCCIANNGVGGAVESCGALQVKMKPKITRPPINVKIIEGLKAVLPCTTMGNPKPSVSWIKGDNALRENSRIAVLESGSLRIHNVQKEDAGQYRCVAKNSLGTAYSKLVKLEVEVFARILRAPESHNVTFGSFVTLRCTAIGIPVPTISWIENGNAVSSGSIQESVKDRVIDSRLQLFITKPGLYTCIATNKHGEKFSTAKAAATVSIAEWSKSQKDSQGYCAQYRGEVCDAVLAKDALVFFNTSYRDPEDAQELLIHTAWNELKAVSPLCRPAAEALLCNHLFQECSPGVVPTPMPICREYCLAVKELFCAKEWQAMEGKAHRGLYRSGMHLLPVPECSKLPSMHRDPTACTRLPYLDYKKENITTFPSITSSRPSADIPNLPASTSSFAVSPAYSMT


Assays:
[1] = target: T1, human MuSK; experiment: Biacore T200, Fab, dissociation pH 7.4 and pH 5.5
[2] = target: T1, human MuSK; experiment: ELISA, plate coated with human MuSK at 0.2 µg/ml, dilution series of mAb, goat anti human Fc-HRP and TMB, OD 620 nm (8 min)
Procedure: (§1) An ELISA plate was coated with human MuSK (R&D Systems, cat. 10189-MK) or mouse MuSK (in house produced in HEK293 cells) at 0.2 μg/ml. After washing and blocking the plate, a dilution series of the anti-MuSK antibodies was applied and allowed to bind for 2 hours at room temperature. […] OD at 620 nm was measured with a 96 well ELISA plate reader.

[3] = target: T2, mouse MuSK; experiment: ELISA, plate coated with mouse MuSK at 0.2 µg/ml, dilution series of mAb, goat anti human Fc-HRP and TMB, OD 620 nm (8 min)
Procedure: as §1

[4] = target: T2, mouse MuSK; experiment: ELISA, coated MuSK 0.2 ug/ml
[5] = target: T1, human MuSK; experiment: ELISA, coated MuSK 0.2 ug/ml

Row | binding [1] | binding [2] | binding [3] | binding [4] | binding [5] | Binder
1 | binds | – | – | – | – | 3B2g2m1 Fab (Fab, V domains shown, Fab format) VH: EVQLLESGGGLVQPGGSLRLSCAASGFTFSDYGMSWVRQAPGKGLEWVSAIPWSGGSTYYKESVKGRFTISRDNSKNTLYLQMNSLRAEDTAVYYCAKRSGRIAFGALDAWGQGTLVTVSS VL: QTVVTQEPSFSVSPGGTVTLTCGLSSGSVTSSNYPDWYQQTPGQAPRTLIYSTDSRHSGVPDRFSGSILGNKAALTITGAQADDESDYYCGLYSYSGSKNYVFGGGTKLTVL
2 | – | binds | binds | binds | binds | 16F11 (antibody, V domains shown, human IgG1 with the LALA mutations (L234A, L235A); produced in HEK293 cells) VH: EVQLVESGGGLVQPGGSLSLSCVASGFTFSLYYMNWVRQAPGKGLEWLSVIDTHSIAYYADSVKGRFTISRDNVKNTLYLQLNNLKPEDTALYYCVLGRTALVRWGQGTQVTVSS VL: DIVMTQSPSSVTASVGEKVTINCKSSQSVVFGSNQKSYLNWYQQRPGQSPRLLIYYASTQESGIPDRFSGSGSTTDFTLTISSVQPEDAAVYYCQQAYSAPTFGSGTRLEIK
